Data as given in PubChem BioAssay AID743121 (NCATS, 2013).
This is one part, drawn at random, of about 26,000 deposited reagents. 167 of them (0.63%) were called active. 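Calls are per gene from RSA p-values that are not deposited; an individual active-marked siRNA can sensitise only weakly.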 Reagents against one gene are numbered here. Further read-outs or replicates are left out here. No sequences are given here.

Assay: 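Knock-downs that sensitise breast cancer cells to camptothecin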 (primary screen)
Cells: MDA-MB-231 cells, a human breast cancer line
Reagent: single siRNA against human genes, 20 nM siRNA (0.8 pmol per well)
Time to read-out: 120 h (drug added 48 h after transfection, read 72 h later)
Challenge: camptothecin 20 nM (about EC30) for 72 h; vehicle 0.1% DMSO in parallel plates
Measurement: 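CellTiter-Glo ATP signal, scaled to control siRNA as percent viability; sensitisation given as log2 of untreated divided by camptothecin-treated viability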
Direction: log2 vehicle/camptothecin viability: higher = stronger sensitisation to camptothecin; viability with camptothecin: higher = more viable cells
Units: viability with camptothecin in % of control
Hit rule: 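Each gene scored by redundant siRNA activity (RSA) over its individual siRNA ratios; a gene is called active at p < 0.001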

After knock-down of RHOC #1, the screen gave log2 vehicle/camptothecin viability 0.286; viability with camptothecin 46.5; inactive.
With knock-down of RHOC #2, the record shows log2 vehicle/camptothecin viability -0.0925; viability with camptothecin 87.1; inactive.
For RHOC #3, the values are log2 vehicle/camptothecin viability -0.302; viability with camptothecin 94.9; inactive.
With knock-down of LLGL2 #1, the record shows log2 vehicle/camptothecin viability 0.472; viability with camptothecin 36.4; inactive.
For LLGL2 #2, the values are log2 vehicle/camptothecin viability 0.117; viability with camptothecin 46.8; inactive.
LLGL2 #3 scored log2 vehicle/camptothecin viability -0.182; viability with camptothecin 85.9; inactive.
Silencing of LLGL2 #4 resulted in: log2 vehicle/camptothecin viability -0.033; viability with camptothecin 82.3; inactive.
Against KDELR2 #1, the entry reads log2 vehicle/camptothecin viability 0.213; viability with camptothecin 95; inactive.
KDELR2 #2 scored log2 vehicle/camptothecin viability -0.28; viability with camptothecin 103; inactive.
Against KDELR2 #3, the entry reads log2 vehicle/camptothecin viability -0.14; viability with camptothecin 106; inactive.
After knock-down of KDELR2 #4 the results were log2 vehicle/camptothecin viability 0.189; viability with camptothecin 93.4; inactive.
HCK #1 showed log2 vehicle/camptothecin viability 0.221; viability with camptothecin 39.3; inactive.
Depletion of HCK #2 gave: log2 vehicle/camptothecin viability 0.00362; viability with camptothecin 42.8; inactive.
For HCK #3 the deposit lists log2 vehicle/camptothecin viability -0.0458; viability with camptothecin 80.5; inactive.
With knock-down of HCK #4, the record shows log2 vehicle/camptothecin viability 0.045; viability with camptothecin 80.9; inactive.
For HMMR #1, the values are log2 vehicle/camptothecin viability -0.153; viability with camptothecin 115; inactive.
HMMR #2 gave log2 vehicle/camptothecin viability -0.524; viability with camptothecin 84.6; inactive.
With knock-down of HMMR #3, the screen gave log2 vehicle/camptothecin viability -0.135; viability with camptothecin 99.7; inactive.
After knock-down of HMMR #4 the results were log2 vehicle/camptothecin viability -0.378; viability with camptothecin 85.2; inactive.
With knock-down of SIGLEC7 #1, the record shows log2 vehicle/camptothecin viability 0.377; viability with camptothecin 58.1; inactive.
After knock-down of SIGLEC7 #2, the screen gave log2 vehicle/camptothecin viability -0.234; viability with camptothecin 33; inactive.
After knock-down of SIGLEC7 #3 the results were log2 vehicle/camptothecin viability 0.476; viability with camptothecin 39.7; inactive.
SIGLEC7 #4 showed log2 vehicle/camptothecin viability -0.605; viability with camptothecin 39.9; inactive.
HAVCR2 #1 scored log2 vehicle/camptothecin viability -0.488; viability with camptothecin 122; inactive.
For HAVCR2 #2 the deposit lists log2 vehicle/camptothecin viability 0.103; viability with camptothecin 88.4; inactive.
Knock-down of HAVCR2 #3 resulted in: log2 vehicle/camptothecin viability -0.0744; viability with camptothecin 73.2; inactive.
For HAVCR2 #4, the entry reads log2 vehicle/camptothecin viability 0.532; viability with camptothecin 8.69; inactive.
For MAPK8IP2 #1, the values are log2 vehicle/camptothecin viability 0.0909; viability with camptothecin 31.3; inactive.
After knock-down of MAPK8IP2 #2, the record shows log2 vehicle/camptothecin viability -0.65; viability with camptothecin 131; inactive.
Knock-down of MAPK8IP2 #3 gave: log2 vehicle/camptothecin viability 0.361; viability with camptothecin 42.4; inactive.
Against MAPK8IP2 #4, the entry reads log2 vehicle/camptothecin viability -0.43; viability with camptothecin 116; inactive.
With knock-down of ALDH3A1 #1, the record shows log2 vehicle/camptothecin viability 0.629; viability with camptothecin 29.8; inactive.
ALDH3A1 #2 gave log2 vehicle/camptothecin viability -0.282; viability with camptothecin 83.3; inactive.
ALDH3A1 #3 scored log2 vehicle/camptothecin viability -0.526; viability with camptothecin 39; inactive.
Against ALDH3A1 #4, the entry reads log2 vehicle/camptothecin viability -0.592; viability with camptothecin 25.6; inactive.
After knock-down of BUB1 #1 the results were log2 vehicle/camptothecin viability -0.17; viability with camptothecin 65.1; inactive.
BUB1 #2 scored log2 vehicle/camptothecin viability -0.205; viability with camptothecin 104; inactive.
BUB1 #3 showed log2 vehicle/camptothecin viability -0.784; viability with camptothecin 81.5; inactive.
Knock-down of BUB1 #4 gave: log2 vehicle/camptothecin viability -0.187; viability with camptothecin 112; inactive.
After knock-down of CSF2RA #1, the screen gave log2 vehicle/camptothecin viability 0.47; viability with camptothecin 34.7; inactive.
CSF2RA #2 gave log2 vehicle/camptothecin viability 0.181; viability with camptothecin 76.6; inactive.
CSF2RA #3 showed log2 vehicle/camptothecin viability -0.0504; viability with camptothecin 104; inactive.
CSF2RA #4 gave log2 vehicle/camptothecin viability -0.000555; viability with camptothecin 95.9; inactive.
With knock-down of DTL #1, the screen gave log2 vehicle/camptothecin viability 0.301; viability with camptothecin 55.1; inactive.
After knock-down of DTL #2, the record shows log2 vehicle/camptothecin viability 0.801; viability with camptothecin 38.1; inactive.
DTL #3 gave log2 vehicle/camptothecin viability 1.26; viability with camptothecin 20; inactive.
Against DTL #4 the deposit lists log2 vehicle/camptothecin viability -0.549; viability with camptothecin 62.9; inactive.
